Reference: PubChem BioAssay AID493014 (National Center for Advancing Translational Sciences (NCATS), 2011)
The other results are listed elsewhere or left out. Shown are side measurements of this screen, not its main read-out; they come without a call. The list favours compounds with an active or inconclusive main result. Potencies come from curve fits of mixed quality, noted in brackets.

Test: qHTS Assay to Find Inhibitors of Chronic Active B-Cell Receptor Signaling
Conditions: ABC-DLBCL IkBa-CBG/CBR reporter, luminescence ratio (green luciferase fused to IkBa over red control in TMD8 lymphoma cells), 4 h
Outline: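 TMD8 human ABC-DLBCL cells with doxycycline-inducible IκBα–green luciferase fusion and unfused red luciferase, in 0.5% FBS medium; compounds up to 46 uM, 4 h at 37C. Green/red luminescence ratio, filter-overlap corrected, fitted to concentration-response curves.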

[1] = measured here: CBR red luminescence, cell number
[2] = measured here: IkBa-CBG green luminescence

**Q.** Which AC50 [1] does the source give for O=C(Cn1ccc(NC(=O)OCc2ccccc2)nc1=O)NCc1ccccn1 here?
**A.** 0.0326 µM [rising, full curve, poor fit]

**Q.** For O=C(C1=NN[C@@H]2C(=O)N(c3cccc(F)c3)C(=O)[C@H]12)c1cnccn1, which AC50 [1] is on record?
**A.** 35.5 µM [falling, single point]

**Q.** Which AC50 [1] does the source give for COc1cccc(NC(=O)CS(=O)(=O)c2cn(CC(=O)N3CCOCC3)c3ccccc23)c1 here?
**A.** 11.2 µM [falling, single point]

**Q.** With Cc1ccc(NC(=O)c2cc(-c3ccccc3O)n[nH]2)cc1Cl as the molecule, how does the AC50 [1] read?
**A.** 1.12 µM [falling, partial curve, poor fit]

**Q.** Which AC50 [1] does the source give for COc1cc(C(=O)N/N=C(\C)c2ccccn2)cc(OC)c1OC here?
**A.** 5.01 µM [rising, partial curve, poor fit]

**Q.** With CCCCNc1nc(Nc2ccc(C)c(Cl)c2)c2cnn(C)c2n1 as the molecule, how does the AC50 [1] read?
**A.** 0.562 µM [falling, full curve, poor fit]

**Q.** With O=C(NCc1ccccn1)c1cc2ccccc2oc1=O as the molecule, how does the AC50 [1] read?
**A.** 20.6 µM [falling, single point]

**Q.** With Cc1cc(C)nc(SSc2nc(C)cc(C)n2)n1 as the molecule, how does the AC50 [2] read?
**A.** 25.1 µM [falling, single point]

**Q.** With O=C(COC(=O)c1n[nH]c(=O)c2ccccc12)NCc1ccccc1 as the molecule, how does the AC50 [1] read?
**A.** 2.91 µM [rising, single point]

**Q.** With Cc1nn(-c2ccccc2)c(C)c1/C=N/NC(=O)c1cc(-c2ccccc2)n[nH]1 as the molecule, how does the AC50 [1] read?
**A.** 29.1 µM [falling, single point]

**Q.** And the AC50 [2]?
**A.** 4.11 µM [falling, full curve]

**Q.** For O=C1/C(=C/c2ccccc2[N+](=O)[O-])COc2ccccc21, which AC50 [1] is on record?
**A.** 12.6 µM [falling, partial curve, poor fit]

**Q.** Which AC50 [1] does the source give for O=C(COc1ccc2ccccc2c1Br)NC(=S)Nc1cccc(CO)c1 here?
**A.** 10.3 µM [rising, partial curve]

**Q.** For O=C(NCC(=O)N(Cc1ccco1)C(C(=O)NC1CCCCC1)c1cccnc1)c1cccs1 (stereo not drawn), which AC50 [1] is on record?
**A.** 29.1 µM [rising, partial curve, poor fit]

**Q.** For COc1ccccc1CCC(=O)NNC(=O)c1ccccc1, which AC50 [1] is on record?
**A.** 12.6 µM [falling, partial curve]

**Q.** For COC(=O)c1ccccc1NC(=O)Cn1c(-c2nonc2N)nc2ccccc21, which AC50 [1] is on record?
**A.** 3.66 µM [rising, full curve]

**Q.** And the AC50 [2]?
**A.** 2.91 µM [falling, full curve]

**Q.** With C=C1CCC[C@]2(C)C[C@H]3OC(=O)C(CNCCN(C)C)[C@H]3CC12 (stereo partly drawn) as the molecule, how does the AC50 [1] read?
**A.** 3.55 µM [falling, full curve, poor fit]

**Q.** With CN(C)CCC1Sc2ccccc2Oc2ccccc21 (stereo not drawn) as the molecule, how does the AC50 [1] read?
**A.** 29.1 µM [falling, single point]

**Q.** For Cc1nc(-c2cc(C#N)c(Sc3ccc(Cl)cc3Cl)nc2C)cs1, which AC50 [1] is on record?
**A.** 14.1 µM [falling, partial curve, poor fit]

**Q.** Which AC50 [1] does the source give for CCc1ccc(N2CC(C(=O)OC)CC2=O)cc1 (stereo not drawn) here?
**A.** 10 µM [rising, partial curve]

**Q.** For CCCC1Nc2ccc(C(=O)O)cc2C2C=CCC12 (stereo not drawn), which AC50 [1] is on record?
**A.** 18.4 µM [falling, partial curve]

**Q.** What does the source list for O=C(NC(=S)Nc1cccc(S(=O)(=O)NC2=NCCC2)c1)c1cc(-c2ccco2)nc2ccccc12?
**A.** AC50 [1]: 35.5 µM [rising, single point]; AC50 [2]: 25.1 µM [falling, single point]

**Q.** With CC(C)=NOC(=O)c1ccc(-c2ccccc2)cc1 as the molecule, how does the AC50 [1] read?
**A.** 13 µM [rising, partial curve, poor fit]

**Q.** Which AC50 [1] does the source give for Cc1cc(SCC(=O)Nc2ccccc2)n2ncc(-c3ccccc3)c2n1 here?
**A.** 0.316 µM [falling, full curve, poor fit]

**Q.** For O=S(=O)(c1cccs1)N1CCN(Cc2ccccc2)CC1, which AC50 [1] is on record?
**A.** 0.398 µM [rising, full curve, poor fit]

**Q.** For O=C(NCc1ccccn1)/C(=N/O)c1ccccc1, which AC50 [1] is on record?
**A.** 20 µM [falling, single point]

**Q.** Which AC50 [1] does the source give for O=S(=O)(Nc1ncccn1)c1ccc(NS(=O)(=O)c2cc(Cl)ccc2Cl)cc1 here?
**A.** 11.2 µM [rising, partial curve, poor fit]

**Q.** Which AC50 [1] does the source give for c1cc2c(cc1C1=NNC(=NC3CC3)SC1)OCCO2 here?
**A.** 11.2 µM [falling, partial curve, poor fit]

**Q.** And the AC50 [2]?
**A.** 17.8 µM [falling, partial curve, poor fit]

**Q.** For COc1ccc(-n2ncc3c(Nc4cccc(C)c4)ncnc32)cc1, which AC50 [1] is on record?
**A.** 20.6 µM [rising, single point]

**Q.** For COc1cccc(C(=O)Nc2ccc(NC(=O)C(C)(C)C)cn2)c1, which AC50 [1] is on record?
**A.** 0.291 µM [falling, full curve, poor fit]

**Q.** Which AC50 [1] does the source give for C=CCn1cccc(C(=O)Nc2cc(OC)cc(OC)c2)c1=O here?
**A.** 35.5 µM [falling, single point]

**Q.** Which AC50 [1] does the source give for COc1ccc(CCN2C(=NC(=O)CC(C)C)SC3CS(=O)(=O)CC32)cc1 (stereo not drawn) here?
**A.** 29.1 µM [rising, single point]

**Q.** Which AC50 [1] does the source give for Cc1ccccc1NC(=O)CSc1nc2ncc(Cl)cc2[nH]1 here?
**A.** 14.1 µM [falling, partial curve, poor fit]

**Q.** For CCOc1ccccc1NC(=O)c1cc2ccccc2oc1=O, which AC50 [1] is on record?
**A.** 0.794 µM [falling, full curve]

**Q.** For O=C(COc1ccccc1O)Nc1ccc(Cl)cc1, which AC50 [1] is on record?
**A.** 8.91 µM [falling, partial curve]

**Q.** Which AC50 [1] does the source give for O=C(c1cc(COc2c(F)cccc2F)on1)N1CCC(c2ccccc2Cl)C1 (stereo not drawn) here?
**A.** 5.62 µM [rising, single point]

**Q.** Which AC50 [1] does the source give for O=C(NCC(=O)N1CCN(c2ccccc2O)CC1)c1ccccc1 here?
**A.** 8.91 µM [falling, partial curve]

**Q.** With CCOc1cccc(/C=N/NS(=O)(=O)c2ccc(C)c([N+](=O)[O-])c2)c1O as the molecule, how does the AC50 [1] read?
**A.** 6.31 µM [falling, full curve]

**Q.** With O=C(CN1C(=O)NC2(CCOc3ccccc32)C1=O)c1cccs1 (stereo not drawn) as the molecule, how does the AC50 [1] read?
**A.** 8.2 µM [rising, partial curve, poor fit]

**Q.** Which AC50 [1] does the source give for O=C(Nc1ncccc1Cl)c1cccc(F)c1 here?
**A.** 6.51 µM [rising, single point]

**Q.** For N=C1/C(=C\c2coc3ccc(O)cc3c2=O)C(=O)N=C2SC=CN12, which AC50 [1] is on record?
**A.** 1.41 µM [falling, full curve, poor fit]

**Q.** Which AC50 [1] does the source give for CCOc1ccc(NC(=O)C(c2ccccn2)N(C(=O)CCl)c2ccc(F)cc2)cc1 (stereo not drawn) here?
**A.** 1.84 µM [falling, full curve]

**Q.** For Cc1onc(-c2c(F)cccc2Cl)c1C(=O)Nc1nnc(-c2ccccc2)s1, which AC50 [1] is on record?
**A.** 2.06 µM [rising, full curve, poor fit]

**Q.** Which AC50 [1] does the source give for Cc1cc(SCC(=O)NC(=O)NCc2ccco2)nc2ccccc12 here?
**A.** 15.8 µM [falling, single point]

**Q.** With COc1ccc(C)cc1Nc1nc(-c2c[nH]c3ccccc23)cs1 as the molecule, how does the AC50 [1] read?
**A.** 8.2 µM [falling, partial curve]

**Q.** With CCN(CC)CCCNC(=O)c1cc(-c2cccc(Cl)c2)on1 as the molecule, how does the AC50 [1] read?
**A.** 3.16 µM [falling, full curve, poor fit]

**Q.** For CN1CCN(c2sc(S(C)(=O)=O)nc2S(=O)(=O)c2ccc(Cl)cc2)CC1, which AC50 [1] is on record?
**A.** 35.5 µM [falling, single point]

**Q.** With Cn1c(=O)c2cn(-c3ccc4c(c3)OCCO4)cc2n(C)c1=O as the molecule, how does the AC50 [1] read?
**A.** 29.1 µM [falling, single point]

**Q.** For Cc1ccc(SCc2cc(=O)c3c(=O)n(-c4ccccc4)[nH]c3[nH]2)cc1, which AC50 [1] is on record?
**A.** 0.891 µM [falling, partial curve, poor fit]

**Q.** Which AC50 [1] does the source give for O=C(NCCc1ccccc1)c1oc2ccccc2c1COc1ccccc1 here?
**A.** 20.6 µM [falling, partial curve, poor fit]

**Q.** Which AC50 [1] does the source give for C=CCN1CC(=O)N2C(C)c3[nH]c4ccccc4c3C[C@H]2C1=O (stereo partly drawn) here?
**A.** 3.16 µM [rising, single point]

**Q.** With Cn1nccc1NC(=O)Nc1cccc(Cl)c1Cl as the molecule, how does the AC50 [1] read?
**A.** 3.98 µM [falling, full curve, poor fit]

**Q.** With CCOC(=O)C1=c2/c(=C/c3ccccc3OC)c(N)c(C#N)n2C(=O)C(c2ccccc2OC)S1 (stereo not drawn) as the molecule, how does the AC50 [1] read?
**A.** 3.66 µM [falling, full curve, poor fit]

**Q.** With CC(C)(C)c1ccc(C(=O)C=[N+]=[N-])cc1 as the molecule, how does the AC50 [1] read?
**A.** 23.1 µM [rising, partial curve, poor fit]

**Q.** Which AC50 [1] does the source give for COc1cc2c(cc1C1NC(=S)NC(C)=C1C(N)=O)CCCC2 (stereo not drawn) here?
**A.** 11.2 µM [rising, partial curve]

**Q.** And the AC50 [2]?
**A.** 7.08 µM [falling, partial curve]

**Q.** For CCSc1nnc(NC(=O)NC(C)(C(F)(F)F)C(F)(F)F)s1, which AC50 [1] is on record?
**A.** 20.6 µM [rising, partial curve]

**Q.** For Cc1cc(C(=O)COc2ccccc2C(N)=O)c(C)n1C1CC1, which AC50 [1] is on record?
**A.** 35.5 µM [rising, single point]

**Q.** With CC(=O)Nc1ccc(NC(=O)c2cc(-c3cc(C)c(C)cc3O)n[nH]2)cc1 as the molecule, how does the AC50 [1] read?
**A.** 0.501 µM [falling, full curve, poor fit]

**Q.** With CC1=C(C)C(=O)OC(C(C)C2CCC3C4CC=C5CC(OC6OC(COC7OC(CO)C(O)C(O)C7O)C(O)C(O)C6O)CC(O)C5(C)C4CCC23C)C1 (stereo not drawn) as the molecule, how does the AC50 [1] read?
**A.** 15.8 µM [falling, partial curve, poor fit]

**Q.** With Cn1c(=O)c(C(=O)NCCO)c(O)c2ccccc21 as the molecule, how does the AC50 [1] read?
**A.** 11.6 µM [falling, partial curve, poor fit]

**Q.** For COc1cccc(C(=O)Nc2c(F)c(F)c(F)c(F)c2F)c1, which AC50 [1] is on record?
**A.** 5.8 µM [falling, full curve]

**Q.** With O=C(Nc1nccs1)c1cc2sccc2n1Cc1ccc(F)cc1 as the molecule, how does the AC50 [1] read?
**A.** 31.6 µM [rising, single point]

**Q.** With CCCOc1ccc2ccccc2c1/C=N/n1c(C)nnc1-n1nc(C)cc1C as the molecule, how does the AC50 [2] read?
**A.** 20.6 µM [falling, partial curve, poor fit]

**Q.** Which AC50 [1] does the source give for COc1cc2[nH]c(C(=O)Nc3ccc4c(c3)OCCO4)cc2c(OC)c1OC here?
**A.** 10 µM [falling, single point]
